According to US12409184B2, “Iloprost compositions and formulations thereof” (BTG INTERNATIONAL INC., priority 2020, dated 2025):
“And” between values parts separate entries of the source, which are not always exact repeats. Equal values may be shown once. Further values from the same series stand in other lists.

Assay: Example 3 solution stability of fully diluted ready-to-use iloprost in IV bags (HPLC)
Format: physicochemical
Method: Iloprost 100 μg/mL injection product is administered to patients by IV bag infusion over a period of six hours. The fully diluted ready to use iloprost is prepared in pharmacy cleanroom using sterile preparation standards (USP Chapter <797>) by pharmacy trained and licensed staff. The fully diluted ready to use drug product may be prepared several hours ahead of treatment with storage at ambient conditions or several days ahead of treatment with storage at refrigerated (2-8° C.) conditions. The IV bags are prepared using empty sterile IV bags which are filled with 99 mL of 0.9% NaCl and 1.0 mL of iloprost 100 µg/mL injection product. The bags are then manually mixed gently to provide a uniform solution. […] IV Bag Sample Preparation: Two 50 mL syringes with 18-gauge needles were assembled. 1.0 mL syringe with 18-gauge needle was assembled. Using a 50 mL syringe, 50 mL of 0.9% NaCl was transferred into an empty IV bag (sterile, ICU Medical) using the injection port. Using a second 50 mL syringe, 49 mL of 0.9% NaCl was transferred into the same IV bag using the injection port resulting in 99 mL of solution. Using the 1 ml syringe, 1.0 mL of iloprost 100 μg/mL injection product was transferred into the IV bag using the injection port. The needle was removed and the port was securely closed. The IV bag was gently inverted several times to mix. During inversion, it was occasionally paused to squeeze the injection port area to ensure liquid rinsed into area several times. Sampling Procedure: For sampling, a 3 mL syringe was assembled with an 18-gauge needle. Using a 3 ml syringe, 2 mL of IV bag solution was withdrew through the injection port and 1 mL was transferred to a HPLC vial for neat injection and the other 1 ml was transferred to a back-up HPLC vial. HPLC vials were stored at refrigerated conditions 2-8° C. Sample Storage and Sampling: For each testing conditions (i-iv discussed above), 12 IV bag samples were prepared (6 IV bags for condition ia)-see below for sampling time). For condition i), all 12 IV bags were then placed into 25° C./60% RH stability chamber ensuring each bag is resting on its largest surface area side. After the first time point, the IV bags were removed from the chamber and each IV bag was mixed by inversion several times. Sampling from each IV bag was taken for HPLC analysis. After sampling, the IV bags were placed back into 25° C./60% RH stability chamber ensuring each bag is resting on its largest surface area side, until next sampling time. At each sampling time, the IV bags were removed from the chamber and each IV bag was mixed by inversion several times before samples were removed. For conditions ii) and iii), all 12 IV bags for each testing condition was placed into a 2-8° C. stability chamber ensuring each bag is resting on its largest surface area side. After 5 days have passed for condition ii) or after 8 days have passed for condition iii), the IV bags were removed from the chamber and allowed to equilibrate to room temperature. Each IV bag was mixed by inversion several times. Sampling from each IV bag was taken for HPLC analysis. Then the IV bags were placed in the 25° C./60% RH stability chamber and sampled at certain time points as discussed herein. […]

[1] = Table 8G (5° C. for 8 days to 25° C./60% RH), Batch 2, time point 5° C. for 5 days [sic]
[2] = Table 8G, Batch 2, 5° C. for 8 days, 25° C./60% RH for 8 hr
[3] = Table 8G, Batch 2, 5° C. for 8 days, 25° C./60% RH for 12 hr

## CC#CCC(C)[C@H](O)/C=C/[C@@H]1[C@H]2C/C(=C/CCCC(=O)O)C[C@H]2C[C@H]1O (stereo partly drawn) [Iloprost, (5E)-5-[(3aS,4R,5R,6aS)-5-hydroxy-4-[(E,3S)-3-hydroxy-4-methyloct-1-en-6-ynyl]-3,3a,4,5,6,6a-hexahydro-1H-pentalen-2-ylidene]pentanoic acid]
Table 8E, Batch 2, 5° C. for 5 days, 25° C./60% for 12 hr
  Iloprost: 1003 ng/mL and 1017 ng/mL and 985.9 ng/mL
Table 8E, Batch 2, IV bag, Initial (T = 0)
  Iloprost: 1011 ng/mL and 986 ng/mL and 1022 ng/mL (2×) and 1001 ng/mL
Table 8F (5° C. for 8 days to 25° C./60% RH), Batch 1, time point 5° C. for 5 days [sic]
  Iloprost: 994.4 ng/mL and 953.2 ng/mL and 978.4 ng/mL and 953.1 ng/mL and 984.2 ng/mL and 956.7 ng/mL
Table 8F, Batch 1, 5° C. for 8 days, 25° C./60% RH for 8 hr
  Iloprost: 963.5 ng/mL and 955.9 ng/mL and 967.8 ng/mL and 938.7 ng/mL and 1033 ng/mL and 961.8 ng/mL
Table 8F, Batch 1, 5° C. for 8 days, 25° C./60% RH for 12 hr
  Iloprost: 980.5 ng/mL and 964.1 ng/mL and 986.4 ng/mL and 967.5 ng/mL and 964.2 ng/mL and 952 ng/mL
Table 8F, Batch 1, IV bag, Initial (T = 0)
  Iloprost: 957.6 ng/mL and 970.1 ng/mL and 966.1 ng/mL and 989.6 ng/mL and 959.6 ng/mL and 964.8 ng/mL
[1]
  % Initial: 100%
  Iloprost: 970.1 ng/mL and 957.9 ng/mL and 1020 ng/mL and 1007 ng/mL and 993.6 ng/mL and 1014 ng/mL
[2]
  % Initial: 100% and 98% and 101% and 99% and 102%
  Iloprost: 983.9 ng/mL and 964.5 ng/mL and 1004 ng/mL and 997.6 ng/mL and 1011 ng/mL and 1010 ng/mL
[3]
  % Initial: 99% and 98% and 101% and 100% and 102%
  Iloprost: 967.5 ng/mL and 964.4 ng/mL and 1007 ng/mL and 1011 ng/mL and 1013 ng/mL and 1009 ng/mL
Table 8G, Batch 2, IV bag, Initial (T = 0)
  Iloprost: 992.7 ng/mL and 979.6 ng/mL and 983.6 ng/mL and 998.9 ng/mL and 1009 ng/mL and 1026 ng/mL
